We go through one molecule from publication PMC4798761.

Experiment [1] has as its target human calumenin (68-315) (human) (UniProt O43852). The experiment is described as follows: SEC-MALS; Superdex 200 Increase 10/300 GL coupled to MALS/DLS/Ri; 25 mM Tris-Cl pH 7.5, 150 mM NaCl, 2.5 mM EGTA (apo protein, no Ca2+); both purified. For orientation: SEC sorts molecules by how far they enter the pores of the column.
For experiment [2] the target is unchanged. The experiment is described as follows: SEC-MALS; Superdex 200 Increase 10/300 GL coupled to MALS/DLS/Ri; 25 mM Tris-Cl pH 7.5, 150 mM NaCl, 2.5 mM CaCl2 (Ca2+-bound protein); both purified.

These are yes or no findings as the source states them, for the method shown.

B1: human calumenin (68-315) (domain or fragment, UniProt O43852 68-315)
chain: ESKERLGKIVSKIDGDKDGFVTVDELKDWIKFAQKRWIYEDVERQWKGHDLNEDGLVSWEEYKNATYGYVLDDPDPDDGFNYKQMMVRDERRFKMADKDGDLIATKEEFTAFLHPEEYDYMKDIVVQETMEDIDKNADGFIDLEEYIGDMYSHDGNTDEPEWVKTEREQFVEFRDKNRDGKMDKEETKDWILPSDYDHAEAEARHLVYESDQNKDGKLTKEEIVDKYDLFVGSQATDFGEALVRHDEF
As to B1, the binding entry in experiment [1] and in experiment [2] was “no binding” each time.
